Source: PubChem BioAssay AID1259405 (NCATS, 2018)

Purpose: 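Mouse-designed siRNAs used to find CHO productivity engineering targets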 (primary screen)
System: Chinese hamster CHO-K1 ovary cells with stable secreted eGFP expression
Reagents: single siRNA against mouse genes, 0.8 pmol siRNA per well (2 µl of 400 nM stock)
Time to read-out: 3 days
Read-out: 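Percent of the per-plate non-targeting control median for intracellular GFP per well by laser scanning cytometry and for cell viability by ATP luminescence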
Scale: GFP, % of control: higher = more GFP per well, higher productivity; viability (ATP), % of control: higher = more viable cells (more ATP)
Rule for the call: 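Called active when intracellular GFP, relative to negative control, is at or above 120%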
This is one part, drawn at random, of about 50,000 deposited reagents. About 4,000 of all reagents (8%) count as active. 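Mouse siRNA library applied to hamster cells; one well for each siRNA.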 Unmarked entries are inactive. The numbers tell different reagents against one gene apart.

2410137M14Rik #1 | GFP, % of control: 49.4; viability (ATP), % of control: 62.9
2410137M14Rik #2 | GFP, % of control: 82; viability (ATP), % of control: 89.4
2410137M14Rik #3 | GFP, % of control: 90.5; viability (ATP), % of control: 65
Iscu #1 | GFP, % of control: 118; viability (ATP), % of control: 86.8
Iscu #2 | GFP, % of control: 88.5; viability (ATP), % of control: 58.9
Iscu #3 | GFP, % of control: 66.6; viability (ATP), % of control: 61.9
Hnrnpm #1 | GFP, % of control: 63.5; viability (ATP), % of control: 77.8
Hnrnpm #2 | GFP, % of control: 141 (active); viability (ATP), % of control: 72.7
Hnrnpm #3 | GFP, % of control: 69.8; viability (ATP), % of control: 55
Zfp42 #1 | GFP, % of control: 50.6; viability (ATP), % of control: 56.9
Zfp42 #2 | GFP, % of control: 69.4; viability (ATP), % of control: 70.7
Zfp42 #3 | GFP, % of control: 55.2; viability (ATP), % of control: 63.6

Part of the list above, reduced to “viability (ATP), % of control”.
Zfp42 #2	70.7
Zfp42 #3	63.6

Next entries follow:
Zfp560 #1 | GFP, % of control: 109; viability (ATP), % of control: 67
Zfp560 #2 | GFP, % of control: 88.9; viability (ATP), % of control: 93.8
Zfp560 #3 | GFP, % of control: 78.5; viability (ATP), % of control: 84.6
Cfap410 #1 | GFP, % of control: 70.7; viability (ATP), % of control: 87
Cfap410 #2 | GFP, % of control: 56.2; viability (ATP), % of control: 59.5
Cfap410 #3 | GFP, % of control: 58.3; viability (ATP), % of control: 72.9
Ackr4 #1 | GFP, % of control: 85.1; viability (ATP), % of control: 63.3
Ackr4 #2 | GFP, % of control: 50.4; viability (ATP), % of control: 42.5
Ackr4 #3 | GFP, % of control: 34; viability (ATP), % of control: 57.1
Or2ak7 #1 | GFP, % of control: 64.2; viability (ATP), % of control: 65.2
Or2ak7 #2 | GFP, % of control: 93.1; viability (ATP), % of control: 61.8
Or2ak7 #3 | GFP, % of control: 109; viability (ATP), % of control: 48.6
Or13j1 #1 | GFP, % of control: 67.5; viability (ATP), % of control: 35.7
Or13j1 #2 | GFP, % of control: 131 (active); viability (ATP), % of control: 75.7
Or13j1 #3 | GFP, % of control: 47.1; viability (ATP), % of control: 50.1
